From publication PMC11187910
The exact form of at least one protein or probe is not confirmed. Where cells or extracts were used, other partners may take part. At least one verdict was read from the data and is not stated in words by the source. Tags and fusion partners may be left off the protein sequences shown.

Target: T1, OCT6 (endogenous, nuclear extract of Ishikawa cells with WT IDH1) (UniProt Q03052)
T1 sequence (looked up, limits assumed): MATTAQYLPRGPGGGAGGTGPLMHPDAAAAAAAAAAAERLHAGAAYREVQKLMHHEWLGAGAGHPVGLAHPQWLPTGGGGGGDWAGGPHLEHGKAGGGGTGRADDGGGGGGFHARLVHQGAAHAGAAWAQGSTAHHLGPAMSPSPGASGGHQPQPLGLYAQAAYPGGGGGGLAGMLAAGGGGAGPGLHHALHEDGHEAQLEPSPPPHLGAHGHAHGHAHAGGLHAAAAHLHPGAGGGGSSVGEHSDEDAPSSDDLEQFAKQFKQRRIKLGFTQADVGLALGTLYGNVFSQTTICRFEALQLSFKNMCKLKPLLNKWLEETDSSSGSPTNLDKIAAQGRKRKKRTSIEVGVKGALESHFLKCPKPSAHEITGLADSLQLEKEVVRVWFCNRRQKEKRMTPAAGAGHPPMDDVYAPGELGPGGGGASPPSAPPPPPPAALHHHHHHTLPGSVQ
Experiment: EMSA supershift, anti-OCT6
Details: MPA-treated cells expressing WT IDH1, nuclear extract 10 ug; 10 mM Tris-HCl pH 7.5, 1 mM MgCl2, 0.5 mM EDTA, 50 mM NaCl, 0.5 mM DTT, 4% glycerol, 0.05 mg/mL poly(dI-dC); 7.5% native PAGE; temperature not stated; protein in an extract; label: biotin

**Q.** Does “GCTCTTCACCTTATTTGCATAAGCGAT (double strand) [OCT6 probe (hH2BJ promoter)]” bind?
**A.** binds
